Some of these results come from one statement about several compounds together.
Tests used:
Experiment in all cases: In vitro kinase inhibition assay (33P FlashPlate)
Type in all cases: biochemical
[1] = molecular target: T1, CDK5/p35NCK (Homo sapiens, UniProt Q00535); conditions: 1 μM ATP, bounds printed with units nM and μM
T1 construct: host or cells: Sf9 insect cells (baculovirus)

Amino acid sequences for entries named in this document (tags omitted). A change or cut given only in a name is not applied to a line headed by its entry.
UniProt Q00535, whole entry: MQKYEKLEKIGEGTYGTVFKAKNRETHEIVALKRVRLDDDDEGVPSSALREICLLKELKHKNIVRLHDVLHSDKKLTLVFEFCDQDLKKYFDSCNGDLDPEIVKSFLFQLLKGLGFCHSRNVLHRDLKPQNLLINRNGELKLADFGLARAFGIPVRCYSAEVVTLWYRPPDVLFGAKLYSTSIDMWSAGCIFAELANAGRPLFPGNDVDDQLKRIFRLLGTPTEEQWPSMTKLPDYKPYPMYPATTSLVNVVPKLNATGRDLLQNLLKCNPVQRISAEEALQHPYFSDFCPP
UniProt Q00534, whole entry: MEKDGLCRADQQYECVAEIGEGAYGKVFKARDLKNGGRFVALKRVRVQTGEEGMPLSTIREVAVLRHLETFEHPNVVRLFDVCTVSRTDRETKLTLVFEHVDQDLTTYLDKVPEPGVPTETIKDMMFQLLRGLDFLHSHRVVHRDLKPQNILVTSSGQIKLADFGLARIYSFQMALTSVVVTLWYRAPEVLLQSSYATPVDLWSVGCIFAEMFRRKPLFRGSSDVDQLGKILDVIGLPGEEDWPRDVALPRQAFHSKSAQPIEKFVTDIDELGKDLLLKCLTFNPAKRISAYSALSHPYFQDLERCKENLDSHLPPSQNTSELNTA
UniProt P50750, whole entry: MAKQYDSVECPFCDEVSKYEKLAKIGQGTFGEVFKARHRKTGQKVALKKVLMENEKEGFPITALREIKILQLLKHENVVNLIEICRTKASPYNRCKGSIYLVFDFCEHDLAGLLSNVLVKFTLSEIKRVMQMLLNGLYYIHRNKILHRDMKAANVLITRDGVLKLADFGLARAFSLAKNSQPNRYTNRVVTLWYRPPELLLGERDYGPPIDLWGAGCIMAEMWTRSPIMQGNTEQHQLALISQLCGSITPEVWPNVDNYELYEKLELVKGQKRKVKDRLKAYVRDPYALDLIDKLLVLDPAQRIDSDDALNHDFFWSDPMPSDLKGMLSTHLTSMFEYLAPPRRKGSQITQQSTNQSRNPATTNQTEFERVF
UniProt P11802: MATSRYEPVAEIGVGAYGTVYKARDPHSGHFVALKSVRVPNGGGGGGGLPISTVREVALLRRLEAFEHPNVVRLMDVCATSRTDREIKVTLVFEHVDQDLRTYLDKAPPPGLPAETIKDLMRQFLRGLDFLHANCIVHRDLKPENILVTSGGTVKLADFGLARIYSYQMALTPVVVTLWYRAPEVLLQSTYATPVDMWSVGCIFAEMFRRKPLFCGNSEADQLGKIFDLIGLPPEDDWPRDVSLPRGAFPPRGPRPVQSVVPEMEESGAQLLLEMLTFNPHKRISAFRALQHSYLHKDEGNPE

[2] = molecular target: T2, CDK6/CycD1 (Homo sapiens, UniProt Q00534); conditions: CDK6/CycD1, 1 μM ATP; bounds printed with units nM and μM
T2 construct: host or cells: Sf9 insect cells (baculovirus)

[3] = molecular target: T3, CDK9/CycT (Homo sapiens, UniProt P50750); conditions: 1 μM ATP, bounds printed with units nM and μM
T3 construct: host or cells: Sf9 insect cells (baculovirus)

[4] = molecular target: CDK4/CycD1 (Homo sapiens, UniProt P11802); parameters: host or cells: Sf9 insect cells (baculovirus); conditions: CDK4/CycD1, 1 μM ATP; bounds printed with units nM and μM

Measured: IC50

NS(=O)(=O)Cc1cccc(Nc2cc(-c3ccccc3OCc3ccccc3)ncn2)c1 [Compound 32, {3-[6-(2-Benzyloxy-phenyl)-pyrimidin-4-ylamino]-phenyl}-methanesulfonamide]
1 nM and 10000 nM: all assays above

COc1cc(F)ccc1-c1cc(Nc2cccc(CS(N)(=O)=O)c2)ncn1 [Compound 3, {3-[6-(4-Fluoro-2-methoxy-phenyl)-pyrimidin-4-ylamino]-phenyl}-methanesulfonamide]
1 nM and 10000 nM: all assays above

NS(=O)(=O)Cc1cccc(Nc2cc(-c3cccc(C(F)(F)F)c3)ncn2)c1 [Compound 63, {3-[6-(3-Trifluoromethyl-phenyl)-pyrimidin-4-ylamino]-phenyl}-methanesulfonamide]
1 nM and 10000 nM: all assays above

CCN(Cc1cccc(-c2cc(Nc3cccc(CS(N)(=O)=O)c3)ncn2)c1)C(C)C [Compound 76, [3-(6-{3-[(Ethyl-isopropyl-amino)-methyl]-phenyl}-pyrimidin-4-ylamino)-phenyl]-methanesulfonamide]
1 nM and 10000 nM: all assays above

NS(=O)(=O)Cc1cccc(Nc2cc(-c3cccc(CO)c3)ncn2)c1 [Compound 69, {3-[6-(3-Hydroxymethyl-phenyl)-pyrimidin-4-ylamino]-phenyl}-methanesulfonamide]
1 nM and 10000 nM: all assays above

CC(C)(C)NS(=O)(=O)Cc1cccc(Nc2cc(-c3ccccc3OCc3ccccc3)ncn2)c1 [Compound 30, C-{3-[6-(2-Benzyloxy-phenyl)-pyrimidin-4-ylamino]-phenyl}-N-tert-butyl-methanesulfonamide]
1 nM and 10000 nM: all assays above

NS(=O)(=O)Cc1cccc(Nc2cc(-c3cccc(OCc4ccccc4)c3)ncn2)c1 [Compound 9, {3-[6-(3-Benzyloxy-phenyl)-pyrimidin-4-ylamino]-phenyl}-methanesulfonamide]
1 nM and 10000 nM: all assays above

CN1CCN(Cc2cccc(-c3cc(Nc4cccc(CS(N)(=O)=O)c4)ncn3)c2)CC1 [Compound 78, (3-{6-[3-(4-Methyl-piperazin-1-ylmethyl)-phenyl]-pyrimidin-4-ylamino}-phenyl)-methanesulfonamide]
1 nM and 10000 nM: all assays above

NC(=O)C1CCCN(Cc2cccc(-c3cc(Nc4cccc(CS(N)(=O)=O)c4)ncn3)c2)C1 (centres unmarked) [Compound 73, 1-{3-[6-(3-Sulfamoylmethyl-phenylamino)-pyrimidin-4-yl]-benzyl}-piperidine-3-carboxylic acid amide]
1 nM and 10000 nM: all assays above

COc1ccc(-c2cc(Nc3cccc(CS(N)(=O)=O)c3)ncn2)cc1 [Compound 62, {3-[6-(4-Methoxy-phenyl)-pyrimidin-4-ylamino]-phenyl}-methanesulfonamide]
1 nM and 10000 nM: all assays above

COc1ccccc1-c1cc(Nc2cccc(CS(=O)(=O)NC3CCCCC3)c2)ncn1 [Compound 34, N-Cylcohexyl-C-{3-[6-(2-methoxy-phenyl)-pyrimidin-4-ylamino]-phenyl}-methanesulfonamide]
1 nM and 10000 nM: all assays above

CCc1ccccc1-c1cc(Nc2cccc(CS(N)(=O)=O)c2)ncn1 [Compound 26, {3-[6-(2-Ethyl-phenyl)-pyrmidin-4-ylamino]-phenyl}-methanesulfonamide]
1 nM and 10000 nM: all assays above

CCCNS(=O)(=O)Cc1cccc(Nc2cc(-c3ccccc3OCC)ncn2)c1 [Compound 12, C-{3-[6-(2-Ethoxy-phenyl)-pyrimidin-4-ylamino]-phenyl}-N-propyl-methanesulfonamide]
1 nM and 10000 nM: all assays above

CN(C)S(=O)(=O)Cc1cccc(Nc2cc(-c3cccc(OCc4ccccc4)c3)ncn2)c1 [Compound 25, C-{3-[6-(3-Benzyloxy-phenyl)-pyrimidin-4-ylamino]-phenyl}-N,N-dimethyl-methanesulfonamide]
1 nM and 10000 nM: all assays above

CCOc1ccccc1-c1cc(Nc2cccc(CS(=O)(=O)N(C)C)c2)ncn1 [Compound 28, C-{3-[6-(2-Ethoxy-phenyl)-pyrimidin-4-ylamino]-phenyl}-N,N-dimethyl-methanesulfonamide]
1 nM and 10000 nM: all assays above

CCOc1ccccc1-c1cc(Nc2cccc(CS(=O)(=O)NC)c2)ncn1 [Compound 43, C-{3-[6-(2-Ethoxy-phenyl)-pyrimidin-4-ylamino]-phenyl}-N-methyl-methanesulfonamide]
1 nM and 10000 nM: all assays above

COc1ccccc1-c1cc(Nc2cccc(CS(=O)(=O)NC(C)C)c2)ncn1 [Compound 10, N-Isopropyl-C-{3-[6-(2-methoxy-phenyl)-pyrimidin-4-ylamino]-phenyl}-methanesulfonamide]
1 nM and 10000 nM: all assays above

CN(CCO)S(=O)(=O)Cc1cccc(Nc2cc(-c3ccccc3OCc3ccccc3)ncn2)c1 [Compound 48, C-{3-[6-(2-Benzyloxy-phenyl)-pyrimidin-4-ylamino]-phenyl}-N-(2-hydroxy-ethyl)-N-methyl-methanesulfonamide]
1 nM and 10000 nM: all assays above

CCCNS(=O)(=O)Cc1cccc(Nc2cc(-c3ccccc3OC)ncn2)c1 [Compound 14, C-{3-[6-(2-Methoxy-phenyl)-pyrimidin-4-ylamino]-phenyl}-N-propyl-methanesulfonamide]
1 nM and 10000 nM: all assays above

CCOc1cccc(-c2cc(Nc3cccc(CS(=O)(=O)N(C)C)c3)ncn2)c1 [Compound 27, C-{3-[6-(3-Ethoxy-phenyl)-pyrimidin-4-ylamino]-phenyl}-N,N-dimethyl-methanesulfonamide]
1 nM and 10000 nM: all assays above

O=S(=O)(Cc1cccc(Nc2cc(-c3ccccc3OCc3ccccc3)ncn2)c1)NC1CCCC1 [Compound 29, C-{3-[6-(2-Benzyloxy-phenyl)-pyrimidin-4-ylamino]-phenyl}-N-cyclopentyl-methanesulfonamide]
1 nM and 10000 nM: all assays above

CS(=O)(=O)Cc1cccc(Nc2cc(-c3ccccc3O)ncn2)c1 [Compound 52, 2-[6-(3-Methanesulfonylmethyl-phenylamino)-pyrimidin-4-yl]-phenol]
1 nM and 10000 nM: all assays above

CCOc1cccc(-c2cc(Nc3cccc(CS(N)(=O)=O)c3)ncn2)c1 [Compound 8, {3-[6-(3-Ethoxy-phenyl)-pyrimidin-4-ylamino]-phenyl}-methanesulfonamide]
1 nM and 10000 nM: all assays above

NS(=O)(=O)Cc1cccc(Nc2cc(-c3ccccc3F)ncn2)c1 [Compound 61, {3-[6-(2-Fluoro-phenyl)-pyrimidin-4-ylamino]-phenyl}-methanesulfonamide]
1 nM and 10000 nM: all assays above

CCN(CC)Cc1cccc(-c2cc(Nc3cccc(CS(N)(=O)=O)c3)ncn2)c1 [Compound 75, {3-[6-(3-Diethylaminomethyl-phenyl)-pyrimidin-4-ylamino]-phenyl}-methanesulfonamide]
1 nM and 10000 nM: all assays above

COc1ccccc1-c1cc(Nc2cccc(C3CCCNS3(=O)=O)c2)ncn1 (centres unmarked) [Compound 67, [3-(1,1-Dioxo-[1,2]thiazinan-6-yl)-phenyl]-[6-(2-methoxy-phenyl)-pyrimidin-4-yl]-amine]
1 nM and 10000 nM: all assays above
